Results are given in words; binding and its absence hold for the method and conditions named. In cells and extracts the contact can be indirect. Some results given as binding are weak or reduced against the parent protein; the word gives no strength.

The chains behind the UniProt entries cited, without tags or fusion partners.
UniProt Q12923: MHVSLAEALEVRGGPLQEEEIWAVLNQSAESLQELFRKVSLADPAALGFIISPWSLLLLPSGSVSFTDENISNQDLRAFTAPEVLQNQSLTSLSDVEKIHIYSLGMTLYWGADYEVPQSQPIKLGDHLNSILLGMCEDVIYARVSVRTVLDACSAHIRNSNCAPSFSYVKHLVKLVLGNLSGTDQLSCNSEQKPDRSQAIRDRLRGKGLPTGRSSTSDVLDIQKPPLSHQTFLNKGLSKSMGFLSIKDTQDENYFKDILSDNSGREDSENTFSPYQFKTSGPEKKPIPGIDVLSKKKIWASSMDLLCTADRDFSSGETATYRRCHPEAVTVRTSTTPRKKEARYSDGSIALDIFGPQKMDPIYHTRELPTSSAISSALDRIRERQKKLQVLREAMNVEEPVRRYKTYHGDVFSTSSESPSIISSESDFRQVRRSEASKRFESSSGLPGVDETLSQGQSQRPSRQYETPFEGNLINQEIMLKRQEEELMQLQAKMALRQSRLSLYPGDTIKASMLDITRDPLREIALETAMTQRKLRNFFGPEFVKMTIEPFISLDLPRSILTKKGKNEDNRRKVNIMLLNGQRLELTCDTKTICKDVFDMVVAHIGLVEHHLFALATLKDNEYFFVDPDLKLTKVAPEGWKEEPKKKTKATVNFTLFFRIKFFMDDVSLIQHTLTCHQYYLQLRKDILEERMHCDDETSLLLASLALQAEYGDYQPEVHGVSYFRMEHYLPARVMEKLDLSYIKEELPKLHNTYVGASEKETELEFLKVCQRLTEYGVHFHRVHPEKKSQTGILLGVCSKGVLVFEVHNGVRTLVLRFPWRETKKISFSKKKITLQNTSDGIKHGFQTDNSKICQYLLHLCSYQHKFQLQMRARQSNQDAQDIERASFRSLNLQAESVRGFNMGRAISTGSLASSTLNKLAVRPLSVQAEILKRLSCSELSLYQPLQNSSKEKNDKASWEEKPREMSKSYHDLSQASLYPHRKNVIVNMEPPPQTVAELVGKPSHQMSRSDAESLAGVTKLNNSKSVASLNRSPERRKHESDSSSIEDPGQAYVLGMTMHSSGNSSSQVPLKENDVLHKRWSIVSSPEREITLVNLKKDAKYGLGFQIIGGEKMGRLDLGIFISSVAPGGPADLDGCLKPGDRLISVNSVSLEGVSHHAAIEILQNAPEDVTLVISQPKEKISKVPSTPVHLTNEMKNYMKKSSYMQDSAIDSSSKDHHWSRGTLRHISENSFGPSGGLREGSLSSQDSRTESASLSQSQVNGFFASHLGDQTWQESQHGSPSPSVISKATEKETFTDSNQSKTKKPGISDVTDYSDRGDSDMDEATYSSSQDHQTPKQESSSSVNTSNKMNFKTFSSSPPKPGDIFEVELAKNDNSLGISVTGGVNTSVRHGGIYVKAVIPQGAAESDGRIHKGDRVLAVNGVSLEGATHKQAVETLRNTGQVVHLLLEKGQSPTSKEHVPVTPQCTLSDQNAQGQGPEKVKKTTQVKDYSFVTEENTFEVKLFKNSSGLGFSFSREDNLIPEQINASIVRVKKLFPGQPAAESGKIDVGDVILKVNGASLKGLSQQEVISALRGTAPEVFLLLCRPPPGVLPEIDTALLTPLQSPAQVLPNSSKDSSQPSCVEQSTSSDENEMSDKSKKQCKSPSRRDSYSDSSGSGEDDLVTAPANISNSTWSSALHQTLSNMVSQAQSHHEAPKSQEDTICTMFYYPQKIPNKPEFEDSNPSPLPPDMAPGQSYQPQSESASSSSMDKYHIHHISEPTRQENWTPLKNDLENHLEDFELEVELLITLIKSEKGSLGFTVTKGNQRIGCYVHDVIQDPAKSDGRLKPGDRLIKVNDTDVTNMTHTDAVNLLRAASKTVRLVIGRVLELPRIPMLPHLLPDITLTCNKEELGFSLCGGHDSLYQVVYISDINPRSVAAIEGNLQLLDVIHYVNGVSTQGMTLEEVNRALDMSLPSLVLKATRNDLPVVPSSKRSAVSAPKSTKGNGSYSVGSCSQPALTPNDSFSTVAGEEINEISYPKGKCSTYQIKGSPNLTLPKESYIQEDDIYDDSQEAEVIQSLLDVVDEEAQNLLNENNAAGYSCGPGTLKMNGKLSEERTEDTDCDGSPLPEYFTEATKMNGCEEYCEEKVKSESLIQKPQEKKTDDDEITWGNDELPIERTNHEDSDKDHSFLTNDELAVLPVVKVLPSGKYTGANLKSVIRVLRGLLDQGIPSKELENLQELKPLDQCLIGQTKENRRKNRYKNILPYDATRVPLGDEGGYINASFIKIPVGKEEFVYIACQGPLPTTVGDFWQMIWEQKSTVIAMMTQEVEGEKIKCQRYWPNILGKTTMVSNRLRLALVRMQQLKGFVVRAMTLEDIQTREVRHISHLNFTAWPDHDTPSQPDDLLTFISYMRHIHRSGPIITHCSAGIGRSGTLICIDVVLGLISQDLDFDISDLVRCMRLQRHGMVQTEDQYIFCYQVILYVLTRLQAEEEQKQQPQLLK

Assay [1] has as its target T1, Halo-TNIP2 without the C-terminal valine (human) (UniProt Q8NFZ5).
T1 sequence: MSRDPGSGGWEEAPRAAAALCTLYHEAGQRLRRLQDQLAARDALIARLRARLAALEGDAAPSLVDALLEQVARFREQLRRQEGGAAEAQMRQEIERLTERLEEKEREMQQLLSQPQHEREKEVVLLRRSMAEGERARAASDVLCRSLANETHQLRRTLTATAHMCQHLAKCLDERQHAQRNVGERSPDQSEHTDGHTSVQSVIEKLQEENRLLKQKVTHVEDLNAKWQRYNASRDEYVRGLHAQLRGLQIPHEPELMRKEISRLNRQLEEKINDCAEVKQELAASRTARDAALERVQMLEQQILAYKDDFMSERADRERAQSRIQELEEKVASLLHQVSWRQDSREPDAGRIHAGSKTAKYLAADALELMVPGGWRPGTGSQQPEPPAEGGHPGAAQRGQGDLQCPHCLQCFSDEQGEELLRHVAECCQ
Nature of the assay: pull-down; Halo affinity purification from whole cell extracts of transfected HEK293T cells, TEV eluates analysed by SDS-PAGE and Western blotting (anti-PTPN13, anti-TNIP2, anti-FLAG).

Assay [2] deals with T2, Flexi-cloned Halo-TNIP2 (with the C-terminal valine cloning scar), transiently expressed from the CMV promoter (human) (UniProt Q8NFZ5).
T2 sequence: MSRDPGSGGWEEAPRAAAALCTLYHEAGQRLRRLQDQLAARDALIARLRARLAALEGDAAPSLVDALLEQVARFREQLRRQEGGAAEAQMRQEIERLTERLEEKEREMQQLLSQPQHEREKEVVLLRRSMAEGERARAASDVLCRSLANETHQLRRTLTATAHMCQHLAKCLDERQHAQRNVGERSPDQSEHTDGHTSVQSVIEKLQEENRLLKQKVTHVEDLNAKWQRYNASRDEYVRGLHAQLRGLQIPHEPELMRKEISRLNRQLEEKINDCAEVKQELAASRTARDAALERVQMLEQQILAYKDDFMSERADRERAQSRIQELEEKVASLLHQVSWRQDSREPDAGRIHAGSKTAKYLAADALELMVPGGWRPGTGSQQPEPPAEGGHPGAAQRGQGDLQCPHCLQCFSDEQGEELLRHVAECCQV
The assay is described as above.

On to “PTPN13, endogenous (from UniProt Q12923 1-2485)”, for which the results for the binding result in assay [1] and in assay [2] were “no binding” and “binds”, respectively.

(Values after PMC4336944.)
